Compound in this experiment: c1cn2cc(-c3ccc4cn[nH]c4c3)nc(Nc3ccc(N4CCOCC4)cc3)c2n1 [entospletinib]
The experiment in a line: log2 fold change, soluble protein after heating vs DMSO (PISA); higher = thermal stabilisation; K562 cells, 10 uM, 30 min; active = over 0.2 and 3.5 SD of the protein, either way, in both replicates (recomputed). An outline of the steps:
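K562 cells at 2×10^6 cells/mL were treated for 30 min with 10 μM compound, and aliquots were heated for 3 min over 48°C-58°C before pooling. Extraction used PBS with 0.5% NP-40 at 4°C, and soluble protein was the supernatant after 21,000xg for 90 min, measured by TMTpro 16plex LC-MS/MS with channel sums equalised. Thermal stability values, relative to control samples and from duplicates, are log2 fold changes.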

Protein sequences, listed by entry. Tags and fused reporters are not part of them. Lines headed by an entry give the natural chain unless they say otherwise; changes in a name come on top.
UniProt Q02218: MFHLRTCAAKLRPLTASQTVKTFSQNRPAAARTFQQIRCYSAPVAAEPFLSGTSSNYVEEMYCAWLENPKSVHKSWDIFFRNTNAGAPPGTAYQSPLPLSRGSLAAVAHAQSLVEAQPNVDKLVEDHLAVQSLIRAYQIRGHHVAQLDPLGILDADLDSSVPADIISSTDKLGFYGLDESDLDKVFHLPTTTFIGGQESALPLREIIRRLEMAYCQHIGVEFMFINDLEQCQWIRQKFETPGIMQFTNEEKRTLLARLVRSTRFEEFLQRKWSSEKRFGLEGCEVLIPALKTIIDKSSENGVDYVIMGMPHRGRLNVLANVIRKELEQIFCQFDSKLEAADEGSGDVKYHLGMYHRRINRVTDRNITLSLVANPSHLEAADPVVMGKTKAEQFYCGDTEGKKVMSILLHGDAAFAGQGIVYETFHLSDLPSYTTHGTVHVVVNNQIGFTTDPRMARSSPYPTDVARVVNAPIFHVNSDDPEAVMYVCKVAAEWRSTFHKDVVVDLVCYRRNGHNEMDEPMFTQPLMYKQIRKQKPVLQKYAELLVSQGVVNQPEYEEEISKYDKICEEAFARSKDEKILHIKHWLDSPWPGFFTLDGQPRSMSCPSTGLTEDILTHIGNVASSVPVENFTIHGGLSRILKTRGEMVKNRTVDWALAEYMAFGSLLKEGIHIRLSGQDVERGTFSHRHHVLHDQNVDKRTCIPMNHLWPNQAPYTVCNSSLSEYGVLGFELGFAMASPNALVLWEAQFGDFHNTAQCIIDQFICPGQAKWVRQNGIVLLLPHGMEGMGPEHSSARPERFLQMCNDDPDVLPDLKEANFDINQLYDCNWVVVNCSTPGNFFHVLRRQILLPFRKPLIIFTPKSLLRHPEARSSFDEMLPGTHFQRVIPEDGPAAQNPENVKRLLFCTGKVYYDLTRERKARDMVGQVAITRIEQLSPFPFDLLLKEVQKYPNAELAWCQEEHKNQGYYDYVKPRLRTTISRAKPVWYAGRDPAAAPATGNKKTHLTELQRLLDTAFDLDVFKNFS
UniProt Q96G74: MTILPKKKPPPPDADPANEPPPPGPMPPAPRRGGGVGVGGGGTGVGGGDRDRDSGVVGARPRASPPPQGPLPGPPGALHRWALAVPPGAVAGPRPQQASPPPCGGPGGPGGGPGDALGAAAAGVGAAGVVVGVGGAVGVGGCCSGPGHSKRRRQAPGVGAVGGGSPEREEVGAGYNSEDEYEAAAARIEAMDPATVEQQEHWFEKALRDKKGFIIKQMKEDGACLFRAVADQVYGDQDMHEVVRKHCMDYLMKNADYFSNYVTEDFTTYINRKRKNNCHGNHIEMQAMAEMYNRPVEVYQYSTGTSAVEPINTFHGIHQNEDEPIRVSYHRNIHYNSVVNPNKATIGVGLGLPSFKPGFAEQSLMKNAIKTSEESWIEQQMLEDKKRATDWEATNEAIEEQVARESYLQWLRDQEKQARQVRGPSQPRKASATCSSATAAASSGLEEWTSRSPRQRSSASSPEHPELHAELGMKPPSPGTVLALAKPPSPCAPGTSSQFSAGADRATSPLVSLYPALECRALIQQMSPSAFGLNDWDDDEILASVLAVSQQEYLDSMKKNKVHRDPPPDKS
UniProt Q13416: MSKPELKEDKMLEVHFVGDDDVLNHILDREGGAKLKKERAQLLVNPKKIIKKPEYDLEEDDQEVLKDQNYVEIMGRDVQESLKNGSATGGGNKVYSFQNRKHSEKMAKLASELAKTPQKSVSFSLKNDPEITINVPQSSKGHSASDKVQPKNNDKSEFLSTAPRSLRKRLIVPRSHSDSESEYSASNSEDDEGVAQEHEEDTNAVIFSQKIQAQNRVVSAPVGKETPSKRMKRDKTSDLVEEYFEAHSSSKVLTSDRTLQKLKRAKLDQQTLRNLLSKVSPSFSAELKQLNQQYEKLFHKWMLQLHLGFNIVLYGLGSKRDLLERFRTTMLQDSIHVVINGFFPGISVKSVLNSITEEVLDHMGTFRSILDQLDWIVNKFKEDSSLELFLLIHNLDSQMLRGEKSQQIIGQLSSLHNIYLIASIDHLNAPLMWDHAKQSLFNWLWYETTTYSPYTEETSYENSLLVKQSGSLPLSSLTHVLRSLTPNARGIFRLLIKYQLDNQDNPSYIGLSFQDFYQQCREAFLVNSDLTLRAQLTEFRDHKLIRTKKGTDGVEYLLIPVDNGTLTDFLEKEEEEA
UniProt Q7Z417: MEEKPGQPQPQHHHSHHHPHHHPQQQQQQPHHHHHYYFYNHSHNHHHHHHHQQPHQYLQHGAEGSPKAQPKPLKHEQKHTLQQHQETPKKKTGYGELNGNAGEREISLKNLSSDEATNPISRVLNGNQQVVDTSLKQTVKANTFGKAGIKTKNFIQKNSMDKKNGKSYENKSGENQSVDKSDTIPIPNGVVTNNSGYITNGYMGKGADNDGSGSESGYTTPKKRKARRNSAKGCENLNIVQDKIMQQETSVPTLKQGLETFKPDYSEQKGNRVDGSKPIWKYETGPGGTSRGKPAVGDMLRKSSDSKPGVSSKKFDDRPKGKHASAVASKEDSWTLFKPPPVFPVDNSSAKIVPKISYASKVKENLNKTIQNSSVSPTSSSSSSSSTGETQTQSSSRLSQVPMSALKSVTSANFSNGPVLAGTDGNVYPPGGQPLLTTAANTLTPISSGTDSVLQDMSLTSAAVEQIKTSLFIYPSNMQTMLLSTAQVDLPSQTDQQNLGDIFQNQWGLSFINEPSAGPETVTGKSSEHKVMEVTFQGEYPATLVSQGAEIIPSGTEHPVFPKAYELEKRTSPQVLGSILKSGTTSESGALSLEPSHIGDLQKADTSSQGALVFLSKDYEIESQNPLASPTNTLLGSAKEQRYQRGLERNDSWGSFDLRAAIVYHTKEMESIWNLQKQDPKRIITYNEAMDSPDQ
UniProt Q9UQ80: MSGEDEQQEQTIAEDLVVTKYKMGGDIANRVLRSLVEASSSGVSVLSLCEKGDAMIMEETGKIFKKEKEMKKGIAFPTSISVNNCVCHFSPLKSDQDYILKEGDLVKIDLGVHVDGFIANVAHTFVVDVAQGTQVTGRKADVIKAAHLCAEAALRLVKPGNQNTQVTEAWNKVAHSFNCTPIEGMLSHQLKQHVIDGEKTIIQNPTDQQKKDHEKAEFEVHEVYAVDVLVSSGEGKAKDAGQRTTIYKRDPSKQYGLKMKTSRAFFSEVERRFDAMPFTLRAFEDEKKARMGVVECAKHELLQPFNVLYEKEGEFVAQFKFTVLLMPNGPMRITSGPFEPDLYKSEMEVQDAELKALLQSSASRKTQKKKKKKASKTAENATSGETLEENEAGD
UniProt O95989: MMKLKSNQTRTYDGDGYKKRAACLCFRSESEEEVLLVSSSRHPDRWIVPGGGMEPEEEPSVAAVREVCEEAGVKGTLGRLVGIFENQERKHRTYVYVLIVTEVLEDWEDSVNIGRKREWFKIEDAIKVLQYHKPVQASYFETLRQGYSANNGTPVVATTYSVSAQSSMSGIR
UniProt Q9H6K4: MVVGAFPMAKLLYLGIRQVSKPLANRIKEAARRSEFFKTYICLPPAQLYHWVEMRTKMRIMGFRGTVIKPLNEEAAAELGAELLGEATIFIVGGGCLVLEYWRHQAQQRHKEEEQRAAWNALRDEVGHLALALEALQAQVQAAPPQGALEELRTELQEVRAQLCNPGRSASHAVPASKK
UniProt O75694: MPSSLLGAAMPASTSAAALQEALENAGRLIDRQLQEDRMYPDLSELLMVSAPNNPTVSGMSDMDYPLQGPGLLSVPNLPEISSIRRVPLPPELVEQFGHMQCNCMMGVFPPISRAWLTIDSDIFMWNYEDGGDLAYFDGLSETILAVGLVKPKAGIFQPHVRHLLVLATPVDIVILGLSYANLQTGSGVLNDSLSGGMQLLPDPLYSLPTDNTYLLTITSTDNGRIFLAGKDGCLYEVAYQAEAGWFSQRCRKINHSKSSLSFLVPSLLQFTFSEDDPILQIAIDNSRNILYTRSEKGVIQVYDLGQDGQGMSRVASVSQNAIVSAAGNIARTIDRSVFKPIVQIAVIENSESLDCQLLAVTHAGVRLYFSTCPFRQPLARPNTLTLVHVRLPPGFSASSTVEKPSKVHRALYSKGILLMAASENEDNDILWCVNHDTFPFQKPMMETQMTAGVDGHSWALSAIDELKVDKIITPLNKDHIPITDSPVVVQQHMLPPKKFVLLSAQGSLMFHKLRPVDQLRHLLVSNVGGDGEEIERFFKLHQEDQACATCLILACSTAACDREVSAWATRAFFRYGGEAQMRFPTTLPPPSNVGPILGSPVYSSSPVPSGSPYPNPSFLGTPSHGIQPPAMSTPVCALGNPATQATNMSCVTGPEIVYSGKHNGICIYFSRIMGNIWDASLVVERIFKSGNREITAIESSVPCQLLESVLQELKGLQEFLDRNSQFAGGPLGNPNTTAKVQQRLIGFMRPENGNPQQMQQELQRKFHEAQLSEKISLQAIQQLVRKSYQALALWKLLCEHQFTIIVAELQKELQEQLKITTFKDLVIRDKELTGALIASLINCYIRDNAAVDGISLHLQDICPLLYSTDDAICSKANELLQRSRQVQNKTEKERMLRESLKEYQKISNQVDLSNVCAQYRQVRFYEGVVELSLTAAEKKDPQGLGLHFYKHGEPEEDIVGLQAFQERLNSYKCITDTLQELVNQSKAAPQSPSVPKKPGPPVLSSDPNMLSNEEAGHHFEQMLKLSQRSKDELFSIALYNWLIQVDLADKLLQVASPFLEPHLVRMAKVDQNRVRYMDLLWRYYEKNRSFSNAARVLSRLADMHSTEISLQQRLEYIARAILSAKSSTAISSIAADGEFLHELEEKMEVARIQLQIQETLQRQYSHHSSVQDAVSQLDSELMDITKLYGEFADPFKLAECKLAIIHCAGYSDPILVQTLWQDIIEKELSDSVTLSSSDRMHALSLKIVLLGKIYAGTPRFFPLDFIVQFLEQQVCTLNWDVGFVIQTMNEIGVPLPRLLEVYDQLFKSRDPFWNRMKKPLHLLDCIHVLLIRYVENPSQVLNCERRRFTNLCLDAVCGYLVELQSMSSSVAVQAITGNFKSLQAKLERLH
UniProt O15294: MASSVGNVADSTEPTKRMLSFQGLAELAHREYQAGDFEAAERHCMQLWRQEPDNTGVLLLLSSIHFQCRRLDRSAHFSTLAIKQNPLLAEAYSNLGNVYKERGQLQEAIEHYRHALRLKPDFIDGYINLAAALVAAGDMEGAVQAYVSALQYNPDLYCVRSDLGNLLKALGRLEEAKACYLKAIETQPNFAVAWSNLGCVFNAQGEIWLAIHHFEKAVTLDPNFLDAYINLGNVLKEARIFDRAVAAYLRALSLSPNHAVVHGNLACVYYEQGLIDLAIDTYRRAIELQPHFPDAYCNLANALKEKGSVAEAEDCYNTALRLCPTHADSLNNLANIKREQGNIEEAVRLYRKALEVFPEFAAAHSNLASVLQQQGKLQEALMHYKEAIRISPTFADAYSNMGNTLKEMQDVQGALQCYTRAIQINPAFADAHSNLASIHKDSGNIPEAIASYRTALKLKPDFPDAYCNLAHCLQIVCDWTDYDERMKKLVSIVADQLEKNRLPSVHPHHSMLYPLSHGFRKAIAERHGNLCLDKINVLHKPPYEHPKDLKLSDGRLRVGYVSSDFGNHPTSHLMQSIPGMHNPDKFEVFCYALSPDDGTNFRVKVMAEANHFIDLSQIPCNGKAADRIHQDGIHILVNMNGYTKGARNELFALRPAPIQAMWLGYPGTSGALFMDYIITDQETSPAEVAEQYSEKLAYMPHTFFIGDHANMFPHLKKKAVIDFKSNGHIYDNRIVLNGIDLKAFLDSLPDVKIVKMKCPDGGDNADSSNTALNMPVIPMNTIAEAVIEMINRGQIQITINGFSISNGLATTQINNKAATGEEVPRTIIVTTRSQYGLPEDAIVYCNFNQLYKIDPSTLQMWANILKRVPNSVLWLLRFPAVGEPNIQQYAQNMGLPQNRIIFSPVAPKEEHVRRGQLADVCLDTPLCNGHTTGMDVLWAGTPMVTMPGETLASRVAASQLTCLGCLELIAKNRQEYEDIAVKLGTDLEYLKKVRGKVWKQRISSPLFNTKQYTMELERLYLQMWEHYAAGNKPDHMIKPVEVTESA
UniProt Q9H8K7: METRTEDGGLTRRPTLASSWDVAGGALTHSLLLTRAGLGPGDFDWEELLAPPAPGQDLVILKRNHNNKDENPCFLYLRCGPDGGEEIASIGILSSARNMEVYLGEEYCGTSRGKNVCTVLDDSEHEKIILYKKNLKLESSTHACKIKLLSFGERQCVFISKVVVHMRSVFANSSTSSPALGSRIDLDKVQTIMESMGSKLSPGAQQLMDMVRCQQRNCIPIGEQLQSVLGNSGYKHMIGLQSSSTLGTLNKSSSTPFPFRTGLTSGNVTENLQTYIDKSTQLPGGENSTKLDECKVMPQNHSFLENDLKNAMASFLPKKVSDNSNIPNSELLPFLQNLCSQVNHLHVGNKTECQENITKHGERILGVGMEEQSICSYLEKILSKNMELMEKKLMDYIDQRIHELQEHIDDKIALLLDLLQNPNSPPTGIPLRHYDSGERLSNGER

The other results are listed elsewhere or left out.

With NUB1 (UniProt Q9Y5A7), the log2 fold change was inactive: 0.056.
Consider OGDH (UniProt Q02218), for which the log2 fold change was inactive: 0.031.
In the case of OTUD5 isoform 5 (UniProt Q96G74) it was inactive: -0.039; in that of NUP54 (UniProt Q7Z3B4), inactive: -0.038.
Regarding P4HA1 (UniProt P13674), the log2 fold change is inactive: 0.016.
With NT5C3A (UniProt Q9H0P0), the log2 fold change was inactive: 0.084.
In the case of NUP42 (UniProt O15504), the log2 fold change is inactive: 0.047.
As for NT5DC3 (UniProt Q86UY8), the log2 fold change was inactive: -0.022.
In the case of ORC2 (UniProt Q13416), the log2 fold change was inactive: -0.044.
In the case of NUFIP2 (UniProt Q7Z417) it was inactive: 0.094; in that of NUCB2 (UniProt P80303), inactive: 0.022.
On to PA2G4 (UniProt Q9UQ80), for which the log2 fold change was inactive: 0.008.
For the target OTC (UniProt P00480), the log2 fold change is inactive: 0.096.
For the target NUDT3 (UniProt O95989), the log2 fold change is inactive: -0.002.
On to NSMCE3 (UniProt Q96MG7), for which the log2 fold change was inactive: -0.007.
On to ORAI1 (UniProt Q96D31), for which the log2 fold change is inactive: -0.15.
Take NUDT9 (UniProt Q9BW91): the log2 fold change was inactive: 0.012.
As to OSBPL9 (UniProt Q96SU4), the log2 fold change was inactive: 0.114.
In the case of NUDT12 (UniProt Q9BQG2) it was inactive: -0.001; in that of OTUB1 (UniProt Q96FW1), inactive: -0.058.
NUDCD1 (UniProt Q96RS6): the log2 fold change is inactive: -0.016.
In the case of NSUN4 (UniProt Q96CB9), the log2 fold change is inactive: 0.041.
Take NUP88 (UniProt Q99567): the log2 fold change is inactive: 0.068.
For OMA1 (UniProt Q96E52), the log2 fold change is inactive: -0.028.
Turning to OPA3 (UniProt Q9H6K4), the log2 fold change was inactive: 0.035.
Take OGFOD3 isoform 2 (UniProt Q6PK18): the log2 fold change was inactive: 0.112.
In the case of NUP155 (UniProt O75694), the log2 fold change is inactive: -0.035.
On to OGT (UniProt O15294), for which the log2 fold change is inactive: 0.035.
In the case of PAAT (UniProt Q9H8K7) it was inactive: -0.037; in that of OCIAD1 (UniProt Q9NX40), inactive: -0.034.
P4HA1 isoform 2 (UniProt P13674): the log2 fold change is inactive: 0.036.

The values are drawn from the supplement of paper PMC10849652.
